Assay results reported in publication PMC5353758.

Molecular target: myosin phosphatase target subunit-1 (MYPT1), endogenous in BPAEC (bovine (endogenous in BPAEC))
Assay: proximity ligation; Duolink PLA in fixed, permeabilised BPAECs; mouse anti-eNOS and rabbit anti-MYPT1 1-296; control with secondary antibodies only

binding: binds
B1: endothelial nitric oxide synthase (eNOS), endogenous in BPAEC (protein, UniProt P29473 1-1205)
chain: MGNLKSVGQEPGPPCGLGLGLGLGLCGKQGPASPAPEPSRAPAPATPHAPDHSPAPNSPTLTRPPEGPKFPRVKNWELGSITYDTLCAQSQQDGPCTPRCCLGSLVLPRKLQTRPSPGPPPAEQLLSQARDFINQYYSSIKRSGSQAHEERLQEVEAEVASTGTYHLRESELVFGAKQAWRNAPRCVGRIQWGKLQVFDARDCSSAQEMFTYICNHIKYATNRGNLRSAITVFPQRAPGRGDFRIWNSQLVRYAGYRQQDGSVRGDPANVEITELCIQHGWTPGNGRFDVLPLLLQAPDEAPELFVLPPELVLEVPLEHPTLEWFAALGLRWYALPAVSNMLLEIGGLEFSAAPFSGWYMSTEIGTRNLCDPHRYNILEDVAVCMDLDTRTTSSLWKDKAAVEINLAVLHSFQLAKVTIVDHHAATVSFMKHLDNEQKARGGCPADWAWIVPPISGSLTPVFHQEMVNYILSPAFRYQPDPWKGSATKGAGITRKKTFKEVANAVKISASLMGTLMAKRVKATILYASETGRAQSYAQQLGRLFRKAFDPRVLCMDEYDVVSLEHEALVLVVTSTFGNGDPPENGESFAAALMEMSGPYNSSPRPEQHKSYKIRFNSVSCSDPLVSSWRRKRKESSNTDSAGALGTLRFCVFGLGSRAYPHFCAFARAVDTRLEELGGERLLQLGQGDELCGQEEAFRGWAKAAFQASCETFCVGEEAKAAAQDIFSPKRSWKRQRYRLSTQAEGLQLLPGLIHVHRRKMFQATVLSVENLQSSKSTRATILVRLDTAGQEGLQYQPGDHIGICPPNRPGLVEALLSRVEDPPPPTESVAVEQLEKGSPGGPPPSWVRDPRLPPCTLRQALTFFLDITSPPSPRLLRLLSTLAEEPSEQQELETLSQDPRRYEEWKWFRCPTLLEVLEQFPSVALPAPLLLTQLPLLQPRYYSVSSAPNAHPGEVHLTVAVLAYRTQDGLGPLHYGVCSTWLSQLKTGDPVPCFIRGAPSFRLPPDPYVPCILVGPGTGIAPFRGFWQERLHDIESKGLQPAPMTLVFGCRCSQLDHLYRDEVQDAQERGVFGRVLTAFSREPDSPKTYVQDILRTELAAEVHRVLCLERGHMFVCGDVTMATSVLQTVQRILATEGDMELDEAGDVIGVLRDQQRYHEDIFGLTLRTQEVTSRIRTQSFSLQERHLRGAVPWAFDPPGPDTPGP

These are yes or no findings as the source states them, for the method shown. Binding seen in cells or lysates may run through a third protein. Binding can be weak; no strength is given.
